These are yes or no findings as the source states them, for the method shown. Binding seen in cells or lysates may run through a third protein. Some entries that bind do so weakly or less than the wild type.
How the values were obtained:
[1] = target: ph-S675-β-catenin (endogenous, HepG2 and Huh6 cells) (human (endogenous in HepG2 and Huh6)) (UniProt P35222); assay: co-IP; extracts of HepG2 and Huh6 cells treated with 5 μM PRI-724; True Blot protocol, Western blot; the precipitating antibody is not told
[2] = target: ph-S675-β-catenin (endogenous, HepG2 and Huh6 cells) (human (endogenous in HepG2 and Huh6)) (UniProt P35222); assay: co-IP; extracts of HepG2 and Huh6 cells treated with DMSO (control); True Blot protocol, Western blot; the precipitating antibody is not told
[3] = target: β-catenin (endogenous, aggressive HBL tumors) (human (endogenous in HBL patient tumors)) (UniProt P35222); assay: co-IP; protein extracts of HBL patient tissue; improved True Blot protocol, IP samples boiled 30 min in loading buffer, Western blot; the precipitating antibody is not told
[4] = target: TCF4 (endogenous, aggressive HBL tumors) (human (endogenous in HBL patient tumors)) (UniProt Q9NQB0); assay: pull-down; biotinylated DNA oligomer with the TCF4 binding site from CEGRs/ALCDs on streptavidin beads, incubated 4 h with protein extracts of background and tumor regions of HBL; 10 mM Tris-HCl pH 7.5, 100 mM NaCl, 5 mM β-mercaptoethanol, 10% glycerol; eluted with 1% SDS, Western blot for β-catenin, TCF4 and p300

Amino acid sequences for entries named in this document (tags omitted).
UniProt P35222: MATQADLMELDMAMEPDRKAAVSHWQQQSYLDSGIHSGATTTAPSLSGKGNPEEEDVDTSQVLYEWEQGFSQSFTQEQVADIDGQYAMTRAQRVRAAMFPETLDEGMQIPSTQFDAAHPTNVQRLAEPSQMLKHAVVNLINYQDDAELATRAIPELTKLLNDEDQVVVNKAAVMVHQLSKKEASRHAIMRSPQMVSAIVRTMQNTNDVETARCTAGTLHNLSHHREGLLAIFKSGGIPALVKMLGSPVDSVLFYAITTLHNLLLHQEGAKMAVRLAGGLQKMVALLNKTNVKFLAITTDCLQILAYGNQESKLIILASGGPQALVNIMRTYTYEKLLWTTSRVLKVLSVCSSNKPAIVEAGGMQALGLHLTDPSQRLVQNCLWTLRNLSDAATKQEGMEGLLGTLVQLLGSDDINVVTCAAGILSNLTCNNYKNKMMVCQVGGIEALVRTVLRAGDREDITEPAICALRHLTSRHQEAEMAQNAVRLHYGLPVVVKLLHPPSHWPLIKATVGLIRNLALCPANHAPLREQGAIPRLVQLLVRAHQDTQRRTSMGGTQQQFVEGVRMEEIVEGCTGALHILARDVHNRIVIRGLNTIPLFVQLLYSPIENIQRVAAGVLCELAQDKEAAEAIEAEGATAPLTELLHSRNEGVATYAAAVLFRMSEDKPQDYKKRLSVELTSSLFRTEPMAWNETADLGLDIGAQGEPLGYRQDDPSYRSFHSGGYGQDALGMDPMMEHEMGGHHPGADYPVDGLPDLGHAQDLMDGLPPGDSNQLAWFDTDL
UniProt Q9NQB0: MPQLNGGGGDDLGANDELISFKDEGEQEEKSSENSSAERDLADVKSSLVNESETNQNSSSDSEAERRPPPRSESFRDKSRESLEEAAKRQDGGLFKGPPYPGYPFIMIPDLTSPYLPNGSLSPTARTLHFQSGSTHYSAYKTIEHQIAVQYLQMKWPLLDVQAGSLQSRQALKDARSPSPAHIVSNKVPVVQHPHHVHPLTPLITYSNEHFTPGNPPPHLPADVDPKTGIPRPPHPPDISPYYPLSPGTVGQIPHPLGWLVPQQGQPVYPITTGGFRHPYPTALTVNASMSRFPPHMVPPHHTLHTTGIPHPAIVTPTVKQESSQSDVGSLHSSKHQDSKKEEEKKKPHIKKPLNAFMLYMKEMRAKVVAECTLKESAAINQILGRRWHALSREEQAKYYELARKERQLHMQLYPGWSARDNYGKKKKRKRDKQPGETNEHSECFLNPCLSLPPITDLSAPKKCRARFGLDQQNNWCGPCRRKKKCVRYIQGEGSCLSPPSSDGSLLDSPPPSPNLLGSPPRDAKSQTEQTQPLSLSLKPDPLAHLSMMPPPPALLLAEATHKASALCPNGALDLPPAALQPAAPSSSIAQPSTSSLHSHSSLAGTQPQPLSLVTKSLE
UniProt Q09472: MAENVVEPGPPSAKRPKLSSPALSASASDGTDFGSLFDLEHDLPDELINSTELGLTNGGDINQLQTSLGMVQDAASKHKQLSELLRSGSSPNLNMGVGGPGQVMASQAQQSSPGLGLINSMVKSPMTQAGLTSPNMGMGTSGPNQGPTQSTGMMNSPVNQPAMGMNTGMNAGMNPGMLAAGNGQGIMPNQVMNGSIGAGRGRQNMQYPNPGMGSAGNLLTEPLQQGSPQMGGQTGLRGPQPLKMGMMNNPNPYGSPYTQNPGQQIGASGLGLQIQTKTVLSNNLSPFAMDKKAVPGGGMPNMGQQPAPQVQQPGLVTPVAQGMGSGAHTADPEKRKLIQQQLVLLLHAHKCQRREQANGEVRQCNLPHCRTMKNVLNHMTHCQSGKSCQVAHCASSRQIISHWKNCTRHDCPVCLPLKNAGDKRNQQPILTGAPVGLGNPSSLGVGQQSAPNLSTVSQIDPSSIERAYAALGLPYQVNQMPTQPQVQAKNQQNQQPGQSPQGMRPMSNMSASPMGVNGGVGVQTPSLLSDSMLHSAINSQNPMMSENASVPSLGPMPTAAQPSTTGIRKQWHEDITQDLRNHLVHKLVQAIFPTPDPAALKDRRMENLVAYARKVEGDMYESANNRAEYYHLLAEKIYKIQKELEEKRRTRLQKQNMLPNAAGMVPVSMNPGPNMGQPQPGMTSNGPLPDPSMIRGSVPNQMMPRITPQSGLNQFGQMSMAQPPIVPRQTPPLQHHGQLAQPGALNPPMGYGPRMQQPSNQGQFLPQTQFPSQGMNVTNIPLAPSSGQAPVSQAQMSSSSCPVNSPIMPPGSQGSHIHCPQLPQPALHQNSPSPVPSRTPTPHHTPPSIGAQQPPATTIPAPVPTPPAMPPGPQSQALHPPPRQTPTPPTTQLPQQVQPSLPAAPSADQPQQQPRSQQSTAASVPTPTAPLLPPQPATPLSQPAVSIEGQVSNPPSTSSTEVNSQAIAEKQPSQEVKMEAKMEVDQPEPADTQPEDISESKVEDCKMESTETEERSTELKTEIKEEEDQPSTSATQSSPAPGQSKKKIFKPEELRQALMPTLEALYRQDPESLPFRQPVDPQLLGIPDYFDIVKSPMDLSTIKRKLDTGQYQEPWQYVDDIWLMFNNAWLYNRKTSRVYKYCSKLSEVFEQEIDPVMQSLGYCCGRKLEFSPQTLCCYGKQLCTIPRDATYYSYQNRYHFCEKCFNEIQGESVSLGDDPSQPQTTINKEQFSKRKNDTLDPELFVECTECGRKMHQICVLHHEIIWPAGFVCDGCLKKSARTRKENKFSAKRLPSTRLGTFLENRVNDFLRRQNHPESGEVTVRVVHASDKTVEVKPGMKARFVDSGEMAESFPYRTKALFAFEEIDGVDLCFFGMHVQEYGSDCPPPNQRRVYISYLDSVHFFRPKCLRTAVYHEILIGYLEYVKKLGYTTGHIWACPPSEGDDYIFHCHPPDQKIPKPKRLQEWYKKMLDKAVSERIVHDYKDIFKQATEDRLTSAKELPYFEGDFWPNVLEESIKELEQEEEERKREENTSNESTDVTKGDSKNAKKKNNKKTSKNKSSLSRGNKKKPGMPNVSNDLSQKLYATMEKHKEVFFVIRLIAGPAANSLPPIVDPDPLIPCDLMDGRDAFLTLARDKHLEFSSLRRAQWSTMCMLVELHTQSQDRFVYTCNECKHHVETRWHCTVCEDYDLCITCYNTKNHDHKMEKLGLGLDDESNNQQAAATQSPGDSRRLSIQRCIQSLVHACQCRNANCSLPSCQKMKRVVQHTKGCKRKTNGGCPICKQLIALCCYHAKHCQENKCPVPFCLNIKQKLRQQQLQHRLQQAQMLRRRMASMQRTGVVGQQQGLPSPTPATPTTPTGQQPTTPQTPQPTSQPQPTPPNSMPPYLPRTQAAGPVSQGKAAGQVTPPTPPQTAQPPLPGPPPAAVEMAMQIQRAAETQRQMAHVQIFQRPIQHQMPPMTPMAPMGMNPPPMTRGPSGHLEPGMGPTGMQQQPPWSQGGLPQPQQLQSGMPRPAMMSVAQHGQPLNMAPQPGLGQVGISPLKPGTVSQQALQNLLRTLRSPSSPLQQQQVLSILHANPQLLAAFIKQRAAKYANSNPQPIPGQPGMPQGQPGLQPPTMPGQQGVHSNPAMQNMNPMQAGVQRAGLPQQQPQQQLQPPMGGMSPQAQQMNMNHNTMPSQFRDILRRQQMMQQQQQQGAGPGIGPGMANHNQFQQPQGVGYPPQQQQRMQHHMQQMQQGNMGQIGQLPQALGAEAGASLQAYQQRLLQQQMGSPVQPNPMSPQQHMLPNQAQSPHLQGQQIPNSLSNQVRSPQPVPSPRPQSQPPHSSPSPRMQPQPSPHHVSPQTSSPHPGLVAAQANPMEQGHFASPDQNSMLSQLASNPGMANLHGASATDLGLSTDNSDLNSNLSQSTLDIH

Substance	binding [1]	binding [2]	binding [3]	binding [4]
p300 (endogenous, HepG2 and Huh6 cells) (from UniProt Q09472 1-2414)	no binding (condition: cells treated with 5 μM PRI-724)	binds	–	–
p300 (endogenous, aggressive HBL tumors) (from UniProt Q09472 1-2414)	–	–	binds	binds
